PubChem BioAssay AID2685 (National Center for Advancing Translational Sciences (NCATS), 2010)
The list shows a part of the results. These are further read-outs of the screen, such as a control signal, another cell line or another target. No call is given for them. The list favours compounds with an active or inconclusive main result. Potencies come from curve fits of mixed quality, noted in brackets.

Test: qHTS Assay for Lipid Storage Modulators in Drosophila S3 Cells;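 on cell number change: cells counted by Cell Tracker Red CMTPX staining in the red channel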
Conditions: BODIPY lipid droplet fluorescence, 18-24 h; for cell number change: measured here: cell count max response, cells fed with added oleic acid
Procedure, shortened: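 Drosophila S3 cells got compounds at several concentrations plus oleic acid (400 uM solution). Laser-scanning cytometry with 488 nm excitation read lipid droplets at 500-530 nm and cells at 575-640 nm. Percent activity was relative to 20 uM Triacsin C.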

[1] = measured here: cell number channel AC50, cells fed with added oleic acid
[2] = measured here: lipid fluorescence (Fed channel) AC50, cells fed with added oleic acid

| SMILES | cell number change | AC50 [1] | AC50 [2] |
| --- | --- | --- | --- |
| CC1CN(c2ccc([N+](=O)[O-])cc2C#N)CC(C)O1 (configuration not stated) | 38.2% | 29.1 µM [rising, single point] |  |
| CCCc1cc(C(N)=O)c(NC(C)=O)s1 | 2.43% |  |  |
| Cc1ccc(N(CC(=O)NCc2cccs2)S(=O)(=O)c2cccs2)cc1 |  | 0.291 µM [rising, partial curve, poor fit] | 0.0259 µM [falling, full curve, poor fit] |
| O=S(=O)(Nc1ccc(Br)cn1)c1cccs1 | 48.7% | 16.4 µM [rising, partial curve, poor fit] | 16.4 µM [rising, single point] |
| Cc1ccc(S(=O)(=O)N2CC3(C)CN(S(=O)(=O)c4ccc(C)cc4)CC(C)(C2)C3O)cc1 (configuration not stated) | 5.71% |  | 2.06 µM [rising, full curve, poor fit] |
| Cc1cc(Nc2cccc(F)c2)nc(NCc2ccccc2)n1 | -63.9% | 2.31 µM [falling, partial curve] | 4.11 µM [falling, partial curve] |
| N#C/C(=C\c1ccc(OCCN2CCOCC2)cc1)C(=O)Nc1ccc(S(N)(=O)=O)cc1 | -0.293% |  | 6.51 µM [rising, partial curve, poor fit] |
| O=C1c2ccccc2S(=O)(=O)N1CCOc1ccccc1 | 0.4% |  |  |
| COc1ccc(S(=O)(=O)N2CC(C)N(C(=O)N(C)C)C2C)cc1 (configuration not stated) | 5.46% |  | 2.91 µM [falling, single point] |
| O=C(NC(c1ccccc1)c1ccccc1)c1ccc(Br)o1 | 2.09% |  |  |
| CCCOc1nnnn1-c1ccccc1 | -27.8% | 0.092 µM [falling, full curve, poor fit] |  |
| O=C(c1ccc2c(c1)OCO2)N(c1ccc(F)cc1)C1C=CS(=O)(=O)C1 (configuration not stated) | -21.8% |  | 2.59 µM [rising, single point] |
| Cn1nnc2cc(C(=O)NCCC3=CCCCC3)ccc21 | 8.06% |  |  |
| CCOC(=O)c1sc(NNC(=O)c2ccc(F)cc2)nc1C | -33.8% | 32.6 µM [falling, single point] |  |
| Cc1oc(-c2ccccc2F)nc1CN1CCC(C(=O)NCc2ccco2)CC1 | 19.9% |  | 18.4 µM [rising, single point] |
| COc1ccccc1N1CCN(C(=O)C(=O)c2c[nH]c3ccccc23)CC1 | 29.7% |  | 6.51 µM [rising, single point] |
| CCN(CC)S(=O)(=O)c1ccc(/C=C/C(=O)OCC(=O)NCc2ccc3c(c2)OCO3)cc1 |  | 1.84 µM [rising, partial curve] | 2.06 µM [rising, single point] |
| COc1ccc(CCNC(=O)CSCc2ccc([N+](=O)[O-])cc2)cc1OC |  | 6.51 µM [rising, single point] |  |
| CCCCCc1c(C)nc(Nc2ccc(F)cc2)[nH]c1=O | -65.2% | 32.6 µM [falling, single point] | 0.206 µM [falling, full curve] |
| Cc1nc(-c2ccc(F)cc2)c(CC(=O)N2CCN(S(=O)(=O)c3cccc([N+](=O)[O-])c3)CC2)s1 |  | 2.91 µM [rising, partial curve, poor fit] |  |

| SMILES | cell number change | AC50 [1] | AC50 [2] |
| --- | --- | --- | --- |
| CCOc1ccccc1NC(=O)C(OC(=O)c1ccc(CC)cc1)c1ccccc1 (configuration not stated) |  | 2.06 µM [rising, partial curve] | 0.58 µM [rising, full curve, poor fit] |
| COCc1nnc(NC(=O)CS(=O)(=O)Cc2ccccc2)s1 |  |  | 0.00411 µM [rising, full curve, poor fit] |
| Cc1nnsc1SCCNC(=O)c1ccc(F)cc1 |  |  | 6.51 µM [rising, single point] |
| COC(=O)c1ccc(NC(=O)c2cccc(N3C(=O)C4C5C=CC(C6CC56)C4C3=O)c2)cc1 (configuration not stated) | -4.86% |  |  |
| Cc1ccccc1NC(=O)c1ccc2c(c1)OCCO2 | 10.4% |  | 9.2 µM [rising, partial curve] |
| O=C(Nc1cccc(F)c1)NC1CC2CCCC(C1)N2C1CC1 (configuration not stated) | -7.41% |  |  |
| Cc1cccc(NC(=O)COC(=O)CCc2c[nH]c3ccccc23)c1C | -1.69% |  | 0.146 µM [rising, full curve, poor fit] |
| Cc1csc(NC(=O)c2cc(-c3ccco3)nc3ccccc23)n1 | -0.751% |  | 2.06 µM [falling, single point] |
| CCN(CC(=O)NC1CCS(=O)(=O)C1)C(=O)c1ccc(OC)c([N+](=O)[O-])c1 (configuration not stated) | -43.6% | 2.91 µM [falling, full curve] | 3.66 µM [falling, full curve] |
| CC1=C(C(=O)OCc2ccccc2)C(c2ccc(Cl)cc2)NC(=O)N1C (configuration not stated) | -32.3% | 16.4 µM [falling, partial curve, poor fit] |  |
| NS(=O)(=O)c1ccc(Sc2ccc3c(c2)CCC3)nc1 | -1.9% |  |  |
| CCCCN(C(=O)Cc1cccc(F)c1)c1c(N)n(CCC)c(=O)[nH]c1=O |  |  | 0.103 µM [rising, full curve, poor fit] |
| O=C1NC(=O)/C(=C/c2ccccn2)S1 | -27.3% | 0.82 µM [falling, full curve, poor fit] | 0.82 µM [falling, full curve] |
| O=C(CCn1c(=S)oc2ccccc21)Nc1ccc(F)cc1 | -23.4% |  | 29.1 µM [falling, single point] |
| Cc1ccc(CN(C)C(=O)c2ccc(S(=O)(=O)N3CCCCCC3)cc2)o1 | -20.9% |  | 1.84 µM [falling, partial curve] |
| Cc1cc(C)nc(NC(=O)c2csnn2)c1 |  | 0.731 µM [rising, single point] |  |
| COc1ccc(N2C(=NC(=O)c3ccccc3)SC3CS(=O)(=O)CC32)cc1 (configuration not stated) | 36.5% | 29.1 µM [rising, single point] |  |
| O=C(Nc1c2c(nn1-c1ccccc1)CS(=O)C2)c1ccc(Br)o1 (configuration not stated) | -3% |  |  |
| COC(=O)c1ccc(NC(=O)CCc2c(C)nc3ncnn3c2C)cc1 | 27.4% |  | 16.4 µM [rising, single point] |
| CCCN1C(=O)c2ccc(C(=O)NCc3ccco3)cc2C1=O | 154% | 18.4 µM [rising, single point] | 0.0517 µM [falling, full curve, poor fit] |

Single entries from the results shown.
Value for Cc1ccccc1NC(=O)c1ccc2c(c1)OCCO2 under cell number change: 10.4%
Value for Cc1nnsc1SCCNC(=O)c1ccc(F)cc1 under AC50 [2]: 6.51 µM [rising, single point]
Value for NS(=O)(=O)c1ccc(Sc2ccc3c(c2)CCC3)nc1 under cell number change: -1.9%
Value for CCCN1C(=O)c2ccc(C(=O)NCc3ccco3)cc2C1=O under cell number change: 154%

(listing goes on)

| SMILES | cell number change | AC50 [1] | AC50 [2] |
| --- | --- | --- | --- |
| CCc1c(C)nc2cc(-c3cc(OC)cc(OC)c3)nn2c1N1CCN(CCN2CCOCC2)CC1 | -10.2% |  | 1.3 µM [falling, full curve, poor fit] |
| CCc1cc(C(=O)N(CC(C)C)c2c(N)n(Cc3ccccc3)c(=O)[nH]c2=O)sc1C | -19% |  | 0.058 µM [falling, full curve, poor fit] |
| COCCNC(=O)/C(C#N)=C/c1nc(N(C)C)n(-c2ccc(F)cc2)c1Cl |  | 0.58 µM [falling, single point] | 0.58 µM [falling, single point] |
| NC(=O)c1c(NC(=O)Cn2cc([N+](=O)[O-])cn2)sc2c1CCCC2 | 52.1% | 3.26 µM [rising, partial curve, poor fit] | 29.1 µM [rising, single point] |
| CCCNC(=O)Nc1ccsc1C(=O)OC | 21.6% | 6.51 µM [rising, single point] | 6.51 µM [rising, partial curve, poor fit] |
| CCCCNc1c(-c2ccc(OC)c(SC3CCCCC3)c2)nc2cnccn12 | -61.8% | 13 µM [falling, partial curve] |  |
| CCOC(=O)c1cnc(SC)nc1Sc1ccccc1 | 49.3% | 29.1 µM [rising, single point] | 2.59 µM [falling, partial curve] |
| CCOC(=O)C1=CN(CC2CCCO2)C=C(C(=O)OCC)C1c1ccccc1C(F)(F)F (configuration not stated) | -31.1% | 29.1 µM [falling, single point] |  |
| Cc1nn(CC(=O)N2CCC(N3CCCCC3)CC2)c(=O)c2c1sc1ccccc12 | 0.306% |  | 29.1 µM [rising, single point] |
| COCCNC(=O)c1ccc2c(c1)nc(C)n2-c1cccc(Cl)c1 | 15.8% |  | 5.17 µM [rising, full curve, poor fit] |
| CC(=O)Nc1ccc2[nH]c(C)c(CC=C(Cl)Cl)c(=O)c2c1 |  |  | 3.26 µM [rising, partial curve] |
| Cc1nnc(SCC(=O)N2c3ccccc3CC2C)[nH]c1=O (configuration not stated) | 12.9% |  |  |
| COc1ccccc1NC(=O)c1ccc(-c2ccc(Br)cc2)o1 | -66.5% | 29.1 µM [falling, single point] | 3.66 µM [rising, single point] |
| COc1ccc(NC(=O)c2cc(=O)[nH]c3ccccc23)cc1 | 19.4% |  | 7.31 µM [rising, partial curve, poor fit] |
| Cc1cccc(NC(=O)c2nc[nH]c2C(=O)N2CCC(C)CC2)c1 | -31.3% | 29.1 µM [falling, single point] |  |
| O=C(NC1CC1)C1=C[C@@H](c2ccc(Br)cc2)C[C@@H](OCc2ccc(CO)cc2)O1 | 16.6% |  | 7.31 µM [rising, partial curve, poor fit] |
| COc1ccc(C(=O)NNC(=O)c2ccc3ccccc3n2)cc1 | 17.4% | 0.00461 µM [rising, full curve, poor fit] |  |
| Cn1c(NCc2cccnc2)nc2c1c(=O)n(Cc1ccccc1F)c(=O)n2C |  | 2.06 µM [rising, partial curve] | 0.92 µM [rising, full curve, poor fit] |
| O=C(CNc1cc(S(=O)(=O)N2CCOCC2)ccc1NCC1CCCO1)Nc1ccccc1F (configuration not stated) | 7.62% |  | 29.1 µM [rising, single point] |
